According to PubChem BioAssay AID2685 (National Center for Advancing Translational Sciences (NCATS), 2010):
Some of the results follow. The main result of the screen is listed elsewhere. These columns were measured beside it and carry no call. Most of these compounds were active or inconclusive in the main read-out, so they are no random draw. The note in brackets gives the kind of curve behind each potency; many fits are weak.

Assay: qHTS Assay for Lipid Storage Modulators in Drosophila S3 Cells;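 as to cell number change: cells counted by Cell Tracker Red CMTPX staining in the red channel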
Details: BODIPY lipid droplet fluorescence, 18-24 h; for cell number change: measured here: cell count max response, cells fed with added oleic acid
How it was run: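 Drosophila S3 cells got compounds at several concentrations plus oleic acid (400 uM solution). Laser-scanning cytometry with 488 nm excitation read lipid droplets at 500-530 nm and cells at 575-640 nm. Percent activity was relative to 20 uM Triacsin C.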

[1] = measured here: lipid fluorescence (Fed channel) AC50, cells fed with added oleic acid
[2] = measured here: cell number channel AC50, cells fed with added oleic acid

SMILES	AC50 [1]	AC50 [2]	cell number change
COCCCN1C(=O)C(=O)/C(=C(/O)c2ccc(S(=O)(=O)N3CCOCC3)cc2)C1c1cccc(Cl)c1 (stereo unspecified)	29.1 µM [rising, single point]	–	–
CN(C)c1ccc(P(=O)(CC(=O)N/N=C/c2ccc(C#N)cc2)OCCCl)cc1 (stereo unspecified)	0.58 µM [rising, single point]	0.92 µM [rising, single point]	–
Cc1[nH]c(=S)c(C#N)c(C)c1CC(=O)c1ccc(Br)cc1	–	–	1.38%
Cc1ccc(C(=O)Nc2ncc(C)s2)o1	–	14.6 µM [rising, single point]	61.3%
CCC(C)c1c(O)nc(SCC(=O)N2CCCCCC2)[nH]c1=O (stereo unspecified)	0.794 µM [rising, partial curve, poor fit]	–	-7.89%
O=C(CSc1nnc(-c2ccncc2)o1)Oc1ccccc1	0.651 µM [falling, full curve]	2.91 µM [falling, full curve, poor fit]	-30.5%
CCOC(=O)/C=c1\s/c(=C\c2ccccc2C)c(=O)n1CC(=O)NCc1ccc2c(c1)OCO2	0.082 µM [rising, full curve, poor fit]	4.11 µM [rising, single point]	6.48%
Cc1cccc(OCc2nnc(SCCC(=O)O)n2-c2ccccc2)c1	29.1 µM [rising, single point]	–	23.4%
CC(C)CCCN1C(Nc2ccccc2)=NC[C@@H]1Cc1ccccc1	29.1 µM [falling, single point]	–	5.09%
COc1cc2c(cc1OC)C(c1cc(Br)ccc1F)N(C(=O)CCl)CC2 (stereo unspecified)	29.1 µM [rising, partial curve]	–	-25%
CCN(CC(=O)c1c(N)n(C)c(=O)n(C)c1=O)c1cccc2ccccc12	29.1 µM [rising, single point]	–	-0.244%
Cc1nc(N2CCOCC2)nc2c1CCC2	0.103 µM [falling, full curve, poor fit]	–	-12%
O=C(NCC(=O)N1CCN(c2ccccc2O)CC1)c1ccc2c(c1)OCO2	16.4 µM [rising, single point]	–	-18.5%
COc1ccc(CCn2ccc(O)c(Cc3ccc(Cl)cc3Cl)c2=O)cc1OC	0.184 µM [falling, full curve]	0.517 µM [falling, full curve]	-54.6%
Cc1ccc(-c2n[nH]c(=S)n2-c2ccccc2)cc1	14.6 µM [rising, single point]	–	29.4%
Cc1ccc(N2CC(C(=O)Nc3ccc4c(c3)OCCO4)CC2=O)cc1 (stereo unspecified)	32.6 µM [rising, single point]	–	10.9%
CN(c1ccc(OCC(=O)N2CCOCC2)cc1)S(=O)(=O)c1ccc(Cl)cc1	29.1 µM [rising, single point]	–	–
OCCN1CCN(Cc2cccc(Oc3ccc(Cl)cc3)c2)CC1	6.51 µM [falling, partial curve]	7.31 µM [falling, single point]	-8.73%

SMILES	AC50 [1]	AC50 [2]	cell number change
Cc1cc(C)c(C#N)c(Nc2ccccc2C)n1	23.1 µM [rising, single point]	–	17.3%
Cc1nn(-c2ccccc2)c(C)c1NC(=O)COC(=O)c1ccc(S(=O)(=O)C(F)F)cc1	16.4 µM [falling, partial curve, poor fit]	4.11 µM [falling, single point]	–
CC/C(=N\NC(=O)c1ccc(CN(C)S(=O)(=O)c2ccc(C)cc2)cc1)c1ccc(OC(F)F)cc1	7.31 µM [falling, partial curve]	18.4 µM [falling, partial curve]	-72.9%
COC(=O)c1sccc1NC(=O)Nc1cccc(OC)c1	6.51 µM [rising, partial curve, poor fit]	–	-4.62%
Cc1cccc(NC(=O)c2ccc(C)c(S(=O)(=O)N3CCCCC3)c2)n1	6.51 µM [rising, single point]	–	27.1%
COc1cccc(-c2cccc(NC(=O)C3CCN(C4CCOCC4)CC3)c2)c1	29.1 µM [rising, single point]	–	25.9%
Cc1cccc(Cn2cc(SCC(=O)Nc3nccs3)c3ccccc32)c1	6.51 µM [rising, single point]	–	–
CCCOc1ccc(NC(=O)C2CC(=O)N/C(=N/N=C(\C)CCc3ccc4c(c3)OCO4)S2)cc1 (stereo unspecified)	0.103 µM [rising, partial curve]	–	–
CN(C)c1ccc(CNC(=O)c2ccc(CNc3c(N4CCCCC4)c(=O)c3=O)cc2)cc1	0.731 µM [falling, full curve]	0.731 µM [falling, full curve]	-42.2%
CCCn1c(N)c(C(=O)CN(C)CC(=O)Nc2ccc(C)cc2)c(=O)[nH]c1=O	–	–	11.2%
CCOC(=O)c1c(NC(=O)c2cc3n(n2)C(C(F)(F)F)CC(c2cccs2)N3)sc(C)c1C (stereo unspecified)	0.184 µM [rising, full curve, poor fit]	–	-1.59%
CC(C)c1nc2ccc(C(=O)O)cc2[nH]1	6.51 µM [falling, single point]	–	–
O=C(Nc1ccc2c(c1)CCC2)C1CCN(c2ncccn2)CC1	–	0.92 µM [rising, partial curve, poor fit]	–
CN(C)CCn1c2c(c(SCC(=O)Nc3cccc(C(F)(F)F)c3)nc1=O)CCCC2	–	4.11 µM [falling, full curve, poor fit]	-25%
O=S(=O)(N/N=C/c1ccccc1OCc1ccc(Cl)cc1)c1ccccc1	0.58 µM [rising, single point]	–	10.5%
Cn1cc(Br)c(NC(=O)/C=C/C(=O)O)n1	18.4 µM [falling, partial curve]	18.4 µM [falling, partial curve]	-67.5%
COc1ccc(CCNC(=O)CSc2nnc(CNC(=O)c3cccs3)o2)cc1OC	–	18.4 µM [rising, single point]	36.7%
CC1CCCCC12NC(=O)N(CC(=O)OCc1ccc(Br)cc1)C2=O (stereo unspecified)	8.2 µM [rising, partial curve]	–	0.519%

Rewritten in markdown: entries from further up.

| SMILES | AC50 [1] | AC50 [2] | cell number change |
| --- | --- | --- | --- |
| CCCn1c(N)c(C(=O)CN(C)CC(=O)Nc2ccc(C)cc2)c(=O)[nH]c1=O | – | – | 11.2% |
| CC(C)c1nc2ccc(C(=O)O)cc2[nH]1 | 6.51 µM [falling, single point] | – | – |
